According to US20100280118A1, “Methods for treating substance dependence” (The Scripps Research Institute, priority 2007, published 2010):
“Also recorded” adds a separate entry of the source. At least one compound was matched to its structure with a doubt left.

Legend:
[1] = test system: cue-reactive, alcohol-dependent individuals; assay: Cue reactivity study, 1 week gabapentin 1200 mg vs placebo, alcohol and affective cue-induced craving; type: in vivo, human
Protocol: This Example describes the results of a study to examine the effectiveness of gabapentin 1200 mg for attenuating symptoms of protracted abstinence in a non treatment-seeking sample of cue-reactive, alcohol-dependent individuals. Subjects were 33 paid volunteers with current DSM-IV alcohol dependence and a strength of craving rating 1σ or greater for alcohol than water cues. Subjects were randomly assigned to gabapentin or placebo for 1-week and then participated in a within-subjects trial where each was exposed to standardized sets of pleasant, neutral, and unpleasant visual stimuli followed by alcohol or water cues. A key aspect of the study design is exposure to alcohol cues (sight and smell of the subject's favorite alcoholic beverage) without consumption. Alcohol consumption would be expected to mask the effects of any medication that targets symptoms of protracted abstinence, as either or both could attenuate such symptoms; the effects of alcohol and the drug to be tested would therefore be inextricably confounded. The design is therefore relatively novel in combining elicitation of craving while inducing both positive and negative affect (along with interaction effects) with non-consumptive alcohol cue exposure. As such it may be particularly well-suited for testing the effectiveness of pharmacological treatments intended to normalize the neurobiological imbalances associated with protracted abstinence in alcoholics.
Subject enrollment: The study was conducted at the University of Miami School of Medicine, Miami, Fla. and approved by that institution's Institutional Review Board as conforming to the ethical standards of the 1964 Declaration of Helsinki. Subjects provided written informed consent prior to participation. Subjects were non treatment-seeking paid volunteers recruited primarily through advertisements, meeting the Diagnostic and Statistical Manual of Mental Disorders, 4th Edition (DSM-IV; American Psychiatric Association, 1994) criteria for current alcohol dependence, abstinent from alcohol on the day of the study, as verified by Breath Alcohol Concentration (BAC), not in acute withdrawal as verified by a Clinical Institute Withdrawal Assessments for Alcohol (CIWA-Ar; Sullivan et al., Br J Addict 84:1353-1357, 1989) score of <8, and meeting the definition of “cue reactive”. An individual was considered cue reactive if his or her “strength of craving” score under a neutral affect condition (see Study Overview below) was ≧1 standard deviation (3 VAS rating scale points; see measures discussion) greater for alcohol than for water cues during a mini cue reactivity session. This is similar to the criterion described by Rubonis et al. (J. Stud. Alcohol. 55:487-494, 1994) to classify cue reactors. Exclusionary criteria consisted of clinically significant medical or psychiatric disorders including depression, anxiety, or dependence on substances other than alcohol and nicotine.
Study Overview and Experimental Design: Subjects meeting admission criteria were randomized to receive gabapentin 1200 mg or placebo. Because image-based affective cue reactivity was not as strong as we had anticipated, to improve statistical power we augmented the control group with untreated individuals from three otherwise-similar lab studies. Criteria for participation were the same in all cases. […] On day 7 of double-blind medication, overall measures of mood, sleep, and craving were assessed. […]

[2] = test system: non treatment-seeking volunteers with current cannabis and alcohol dependence; assay: Pilot laboratory study, one week gabapentin 1200 mg/d vs placebo; type: in vivo, human; settings: gabapentin 1200 mg/d relative to placebo
Protocol: This Example describes treatment of subjects suffering from cannabis dependence with gabapentin. Subjects with DSM-IV cannabis dependence were enrolled in a clinical study of treatment with gabapentin. Earlier, in a pilot laboratory study, the safety and efficacy of gabapentin 1200 mg/d in non treatment-seeking volunteers with current cannabis and alcohol dependence involving were examined in one week of chronic dosing with double-blind, randomly assigned active drug or placebo. […] The results lend support to: 1) the safety and tolerability of our drug titration schedule and the steady state dose of gabapentin 1200 mg/d in outpatients with cannabis dependence; 2) the efficacy of gabapentin 1200 mg/d in treating disturbed sleep, a key symptom of cannabis withdrawal; and 3) our ability to recruit a sample of subjects with cannabis dependence who are willing to participate in clinical research involving medication. Based on the results from this pilot study, subjects with only cannabis dependence were then recruited and treated with gabapentin, as detailed below.

[3] = test system: outpatients with alcohol dependence; assay: 12-week double-blind, placebo-controlled, dose-ranging study of gabapentin 900 or 1800 mg/day in alcohol dependence; type: in vivo, human
Protocol: This example describes the study of gabapentin treatment of subjects suffering from alcohol dependence. A 12-week, double-blind, placebo-controlled, dose-ranging study was conducted with random assignment to gabapentin 900 mg/day, 1800 mg/day, or placebo. Subjects are outpatients with alcohol dependence. The 3 pharmacological treatment conditions were administered in conjunction with manual-guided behavioral counseling that incorporates strategies to increase motivation, abstinence, and medication compliance. Counseling and research assessments occurred weekly throughout the 12-week treatment phase. Post-treatment assessments occurred at Weeks 13, 24, and 36.
The criteria for inclusion are as follows: (1) Males or females over 18 years of age; (2) Meets DSM-IV criteria for current alcohol dependence; (3) Seeking research-based outpatient treatment for alcohol problems; (4) Abstinent from alcohol a minimum of 3 days to a maximum of 30 days at the time of randomization; and (5) Willing to attend 12 weekly study visits and 3 follow-up visits. The criteria for exclusion are as follows: (1) Currently meets DSM-IV criteria for dependence on substances other than alcohol, nicotine or caffeine; (2) Significant medical disorders that will increase potential risk or interfere with study participation, e.g., plasma […] >1.4 mg/dL; (3) Sexually active female subjects with childbearing potential who are pregnant, nursing or refuse to use a reliable method of birth control; (4) Meets DSM-IV criteria for a major AXIS I disorder other than alcohol dependence, including depressive and anxiety disorders, and is in need of, or currently undergoing, pharmacotherapy; (5) Inability to understand and/or comply with the provisions of the protocol and consent form; (6) Treatment with an investigational drug during the previous month; (7) Sensitivity to study drug as evidenced by adverse drug experiences with gabapentin or its ingredients; (8) Ongoing treatment with disulfuram (Antabuse), naltrexone (ReVia®), acamprosate (Campral®) or other medications that may affect study outcomes, e.g., anticonvulsants; (9) More than one month of abstinence prior to randomization; (10) Subjects who require medicated detoxification (Note: Subjects may proceed with study evaluation after completion of detoxification); (11) Subjects for whom treatment of alcoholism is being mandated by a legal authority; (12) Unable to identify at least one collateral informant to verify drinking status at baseline and monthly during study, and to assist in tracking subjects for follow-up assessments; or (13) Subjects who plan to move out of the geographic area served by the Clinic prior to study completion.
Primary outcome of the treatment was assesses with the following measures. Timeline Followback Interview (TLFB; Sobell and Sobell, 1992) provides quantity and frequency estimates of alcohol intake at baseline and throughout the study using a standard drinks format (Research Nurse, 20 minutes at screening and Week 24 and 36 follow-up visits, 5 minutes at weekly study visits). […] Therefore, TLFB data is supported by weekly breathalyzers and monthly collateral informant reports and GGT. If unresolved inconsistencies between sources occur, then the most negative outcome will be assumed accurate.
Secondary outcome of the treatment was assessed with the following measures. Alcohol Craving Questionnaire-Short Form (ACQ-SF; Singleton et al., 1994) provides a quick assessment of current drinking urges, difficulty resisting urges and anticipation of positive outcome or relief from negative affective state by drinking (baseline and every study visit, self report, 1-2 minutes). Beck Depression Inventory (BDI; Beck et al., 1961) is a self-rating of severity of depressive symptoms (baseline and every study visit, 5 minutes). Gamma glutamyl transferase (GGT) is used as a biochemical marker of alcohol abstinence or relapse. […]

[4] = test system: outpatients with current cannabis dependence; assay: 12-week randomized, double-blind, placebo-controlled trial of gabapentin 1200 mg/d in cannabis dependence; settings: gabapentin 1200 mg/d vs placebo
[5] = gabapentin 1200 mg vs placebo, 1 week
[6] = complete study (n=150), compared to placebo

## NCC1(CC(=O)O)CCCCC1 [gabapentin, (1-aminomethyl)-1-cyclohexaneacetic acid]
[1]; [5]
  PSQI latency (time required to fall asleep): shorter
  PSQI subjective quality: significantly (p<0.001) better
[1]; gabapentin 1200 mg vs placebo, 1 week, p<0.05
  global PSQI sleep index: significantly better
[1]; gabapentin 1200 mg vs placebo, 1 week, trend, p<0.06
  PSQI efficiency (percent of time in bed actually slept): greater
[1]; three of four subjective craving measures, vs placebo
  craving for alcohol vs. water: significantly attenuated
[2]
  Sleep disturbance and sleep quality measures: significant improvements
[3]; Kaplan-Meier, log rank test, p=0.7341, interim analysis
  Latency to first drink: no significant differences in rate of survival
[3]; [6]
  craving: decreased
  drinking frequency: decreased
  drinking quantity: decreased
  liver functioning: improved
  number of abstinent days per week: increased
  number of heavy drinking days: decreased
  overall severity of alcoholism: decrease
  rate of complete abstinence over the whole treatment period: increased
  rate of no heavy drinking over the whole treatment period: increased
[3]; complete study (n=150), not statistically significant
  number of cigarettes smoked: dramatic reduction; also recorded: reduced
[3]; dose not stated
  alcohol consumption in subjects after acute withdrawal (FIG. 7): reduces
  daytime dysfunction in subjects in protracted abstinence (FIG. 8): attenuated
  negative affective symptoms in subjects in protracted alcohol abstinence (FIG. 10): attenuated
[3]; drug treatment vs placebo
  sleep efficiency or use of sleep medication (PSQI): No significant effects
[3]; one-way ANOVA, three treatment groups, p=0.664, interim analysis
  Rate of cumulative abstinence duration (CAD): did not show a significant effect of treatment
[4]
  MWC difficulty concentrating: significantly greater decreases
  MWC nervousness: significantly greater decreases
  Marijuana Withdrawal Checklist (MWC) total score: significantly greater decreases
  PSQI daytime dysfunction (daytime sleepiness and dysfunction): robust (p<0.01) effect on reducing; also recorded: early attenuation of symptoms; also recorded: significantly reduced
  PSQI sleep disturbance: trend towards a main effect; also recorded: significant drug effect on intercept; also recorded: significantly reduced
  PSQI sleep latency: trend towards a main effect; also recorded: attenuated both immediately
  marijuana craving: reduced marijuana craving at a faster rate; also recorded: craving decreased significantly more
  mood (BDI): improved mood; also recorded: mood improved
[4]; 12 weeks
  cannabis use, ratio of THC to creatinine in urine (THC/Cr): strong (p<0.01) main effect of drug in the expected beneficial direction; also recorded: rate of decrease in use was greater; also recorded: significantly greater reductions
  grams of marijuana used per week (g/wk), TLFB: attenuating effect of treatment on intercept was clearly present; also recorded: significantly greater reductions
[4]; n.s.
  MWC fatigue: trend for less fatigue
